# Counter-ions that a name gives are not always drawn. The list shows a part of the results. Single values are uncertain here, since repeats match poorly.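 The human kidney-derived cells carry a stably integrated construct of eight TEAD-binding elements driving luciferase, read by luminescence in a drug-repurposing library screen. A compound counts as a hit when its signal is more than five robust Z scores above the plate mean.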
# Tested on: HEK293A TEAD-LUC reporter
# Test: TEAD-luciferase reporter activity (YAP activation), robust Z score vs plate; higher = stronger YAP/TEAD activation
# Settings: 24 h
SMILES,TEAD-luciferase reporter activity (compound concentration: 200 nM),TEAD-luciferase reporter activity (compound concentration: 2 uM),TEAD-luciferase reporter activity (compound concentration: 10 uM)
O=C(NC1CCNCC1)c1n[nH]cc1NC(=O)c1c(Cl)cccc1Cl,inactive: 0.532,inactive: -2.22,active: 13.4
C[C@@H](Oc1cc(-c2cnn(C3CCNCC3)c2)cnc1N)c1c(Cl)ccc(F)c1Cl [crizotinib],inactive: 1.37,inactive: -1.55,inactive: 3.81
N#C/C(=C1/Nc2ccccc2S1)c1ccnc(NCCc2cccnc2)n1,–,inactive: -2,–
N#C/C(=C1/Nc2ccccc2S1)c1ccnc(NCCc2cccnc2)n1 [JNK Inhibitor V],inactive: 0.621,–,inactive: 0.151
CCN1CCN=C1CNC(=O)c1cc(Cl)c(N)cc1OC,inactive: -1.19,inactive: 0.555,inactive: 2.27
Cc1cn([C@@H]2O[C@H](CO)[C@@H](O)[C@@H]2F)c(=O)[nH]c1=O,inactive: -0.512,inactive: -2.01,inactive: -0.0222
N#C[C@@H]1CCCN1C(=O)[C@@H](N)CN1C(=O)[C@@H]2C[C@H]1CN2S(=O)(=O)c1cccc(F)c1,inactive: -2.11,inactive: -2.34,inactive: -0.14
O=C[C@@H]1CCCN1C(=O)CCC(=O)NCc1ccc(Cl)cc1,inactive: 0.354,inactive: -0.718,inactive: 0.925
CSCCC(NC(=O)COc1ccccc1)C(=O)OCC(=O)Nc1ccccc1 (stereo unspecified),inactive: 1.44,inactive: -0.121,–
Cc1cc2c(cc1S(N)(=O)=O)S(=O)(=O)CCC2,inactive: 0.00128,inactive: -0.192,inactive: 0.883
N=C(N)NCCC[C@@H]1NC(=O)[C@H](CCCNC(=N)N)NC(=O)[C@H](CCCNC(=N)N)NC(=O)[C@H](CCCNC(=N)N)NC(=O)[C@H](CCCNC(=N)N)NC(=O)[C@H](CCCNC(=N)N)NC(=O)[C@H](CCCNC(=N)N)NC1=O,inactive: -1.62,inactive: 0.501,inactive: -0.826
O=C(CNc1ccc2ccccc2c1)N/N=C/c1cc(Br)c(O)c(Br)c1O,inactive: -2.08,inactive: -0.434,inactive: -1.37
CC/C=C\C/C=C\C/C=C\C/C=C\C/C=C\C/C=C\CCC(=O)N[C@@H](CCCCN)C(=O)O [Epavir],inactive: -0.746,inactive: -0.497,inactive: -1.45
Nc1ccc([C@@H](O)CNCCOc2ccc(CC(=O)O)cc2)cn1,inactive: -0.678,–,inactive: 1.19
Cc1cc(C)cc(C(=O)N2CCC(NCc3ccnc4ccccc34)CC2Cc2ccccc2)c1 (stereo unspecified),inactive: 0.709,inactive: -0.486,inactive: 0.647
CC(C)(Oc1ccccc1)C(=O)OCCN1CCOCC1,inactive: -1.53,inactive: -1.82,active: 8.05
CN1CCN(c2ccc3nc(-c4c(N)c5c(F)cccc5[nH]c4=O)[nH]c3c2)CC1,inactive: 0.83,–,inactive: 1.42
CN1CCN(c2ccc3nc(-c4c(N)c5c(F)cccc5[nH]c4=O)[nH]c3c2)CC1 [dovitinib lactate],–,inactive: 2.07,–
Cc1ccc(NC(=O)c2ccc(Cl)cc2Cl)c(C(=O)O)c1,inactive: 1.01,inactive: -0.555,inactive: 0.648
CC1CC1C(=O)Nc1ccc(C(=O)NC2CCCN(Cc3cc(Cl)ccc3O)C2)cc1 (stereo unspecified),inactive: -0.861,inactive: -0.524,inactive: 0.415
COc1ccc(CNC(=O)c2cc([N+](=O)[O-])ccc2NC(C)CO)cc1OC (stereo unspecified),inactive: -0.664,inactive: 0.00155,active: 5.24
O=C(Nc1c[n+](N2CCOCC2)no1)C1CCCCC1,inactive: 4.18,inactive: -0.356,inactive: -0.0268
Cn1c(=O)c2c(ncn2CC(=O)Nc2ccc(-c3ccccc3)nn2)n(C)c1=O,inactive: 1.39,inactive: -1.48,inactive: -0.0248
COc1cc2c(cc1OC)CN(CCc1ccc(NC(=O)c3cccc4c(=O)c5cccc(OC)c5[nH]c34)cc1)CC2 [elacridar],inactive: 2.36,inactive: -0.261,inactive: -0.495
COc1cc2c(cc1OC)CN(CCc1ccc(NC(=O)c3cccc4c(=O)c5cccc(OC)c5[nH]c34)cc1)CC2 [Elacridar],–,inactive: -0.516,–
COc1c(N2CCNC(C)C2)c(F)cc2c(=O)c(C(=O)O)cn(C3CC3)c12 (stereo unspecified) [gatifloxacin],–,inactive: -1.71,–
COc1c(N2CCNC(C)C2)c(F)cc2c(=O)c(C(=O)O)cn(C3CC3)c12 (stereo unspecified) [Gatifloxacin],inactive: -0.498,–,inactive: -1.55

# Record cards, from the list above. Values in the order: TEAD-luciferase reporter activity (compound concentration: 200 nM) | TEAD-luciferase reporter activity (compound concentration: 2 uM) | TEAD-luciferase reporter activity (compound concentration: 10 uM)
# CN1CCN(c2ccc3nc(-c4c(N)c5c(F)cccc5[nH]c4=O)[nH]c3c2)CC1 is listed with inactive: 0.83 | – | inactive: 1.42
# N#C[C@@H]1CCCN1C(=O)[C@@H](N)CN1C(=O)[C@@H]2C[C@H]1CN2S(=O)(=O)c1cccc(F)c1 is listed with inactive: -2.11 | inactive: -2.34 | inactive: -0.14
# CSCCC(NC(=O)COc1ccccc1)C(=O)OCC(=O)Nc1ccccc1 (stereo unspecified) is listed with inactive: 1.44 | inactive: -0.121 | –
# Cc1cc2c(cc1S(N)(=O)=O)S(=O)(=O)CCC2 is listed with inactive: 0.00128 | inactive: -0.192 | inactive: 0.883

# Continued.

SMILES,TEAD-luciferase reporter activity (compound concentration: 200 nM),TEAD-luciferase reporter activity (compound concentration: 2 uM),TEAD-luciferase reporter activity (compound concentration: 10 uM)
CCCC[C@@H](NC(=O)[C@@H](Cc1cn(C(=O)OC)c2ccccc12)NC(=O)[C@H](CC(C)(C)C)NC(=O)N1[C@H](C)CCC[C@@H]1C)C(=O)[O-],inactive: -0.193,inactive: 1.14,inactive: 0.268
CC(C)(C)NCC(O)COc1cccc2c1SCCC2 (stereo unspecified) [Tertatolol hydrochloride],inactive: 2.38,inactive: -1.08,inactive: 1.7
CCCCCCN1CCCC12Cc1ccccc1CNC2=O (stereo unspecified),inactive: 2.9,–,inactive: -0.0843
C[C@@H](O)[C@H]1C(=O)N2C(C(=O)O)=C(S[C@@H]3CN[C@H](C(=O)N(C)C)C3)[C@H](C)[C@H]12,inactive: -0.00218,inactive: -1.33,inactive: -0.533
C[C@]12CCC(=O)C=C1CC[C@@H]1[C@@H]2[C@@H](O)C[C@@]2(C)[C@H]1CC[C@]2(O)C(=O)COP(=O)([O-])[O-],inactive: -1.2,inactive: -0.567,inactive: 0.835
O=C(Nc1cc(-c2ccncc2)nn1-c1ccccc1)c1ccccc1,inactive: -2.34,–,inactive: -0.462
CNC(=O)c1ccc2cc([C@@]3(O)CCn4cncc43)ccc2c1 [orteronel],inactive: -0.567,inactive: -1.79,inactive: -2.29
CC(C)(N)C(=O)N[C@H](COCc1ccccc1)c1nnnn1CCOC(=O)NCCCCO,inactive: 0.0779,inactive: 0.528,inactive: 1.29
c1ccc(-c2nc(N3CCNCC3)cc3ccccc23)cc1 [perafensine],inactive: 0.505,inactive: -0.213,inactive: -0.537
COc1c(N2CCC(=NO)CC2)c(F)cc2c(=O)c(C(=O)O)cn(C3CC3)c12,inactive: 0.142,inactive: -0.941,inactive: 1.29
Cc1cccc(C(=O)N2CCCC2C(C)(C)O)c1F (stereo unspecified),inactive: -1.11,inactive: 2.15,inactive: 0.335
Cc1cc(NCCN2CCN(C(c3ccccc3)c3ccccc3)CC2)c([N+](=O)[O-])c(C)n1 [Elbanizine],inactive: 3.92,inactive: 0.861,inactive: 1.27
CO[C@H]1C(n2cnc3c(=O)[nH]c(N)nc32)C[C@@H]1CO (stereo partly specified),inactive: 0.73,inactive: 0.00693,inactive: 3.96
COC(=O)c1ccc(C(C(C)=O)C(C)=O)cc1C(=O)OC [Pharmaprojects No. 1912],inactive: -0.538,inactive: -1.75,inactive: 1.72
O=[N+]([O-])c1cn2c(n1)OC[C@@H](OCc1ccc(OC(F)(F)F)cc1)C2 [Pretomanid],inactive: 0.247,inactive: -0.912,inactive: -2.13
CC1(C)CC(NC(=O)CCN2C(=O)c3ccccc3S2(=O)=O)c2ccccc2O1 (stereo unspecified),inactive: -0.64,inactive: 1.36,inactive: -0.573
"O=c1[nH]c(=O)n([C@H]2C[C@H](O)[C@@H](CO)O2)cc1/C=C/Br [brivudine eyedrop, Menarini]",inactive: -0.789,–,inactive: -2.09
O=c1[nH]c(=O)n([C@H]2C[C@H](O)[C@@H](CO)O2)cc1/C=C/Br [brivudine eyedrop],–,inactive: -1.74,–
CC(C)CC(CN[C@@H](CC(C)C)C(N)=O)NC(=O)[C@H](Cc1cnc[nH]1)NC(=O)CNC(=O)[C@@H](NC(=O)C(C)NC(=O)[C@H](Cc1c[nH]c2ccccc12)NC(=O)[C@H](CCC(N)=O)NC(=O)[C@H]1Cc2c([nH]c3ccccc23)CN1)C(C)C (stereo partly specified),inactive: 0.835,inactive: -0.348,inactive: 1.75
NCc1ccc(S(=O)(=O)c2ccc(N)cc2)cc1,inactive: -0.612,inactive: 3.43,inactive: 1.99
CNC(=O)CN1CCC(Oc2cc3c(Nc4cccc(Cl)c4F)ncnc3cc2OC)CC1 [Sapitinib],inactive: -1.06,inactive: 1.44,inactive: -2.82
CC(=O)NC[C@H]1CN(c2ccc(C3=NOC(C#N)C3)c(F)c2)C(=O)O1 (stereo partly specified),active: 8.55,inactive: 0.0985,inactive: 1.16
O=C(O)CCN1CCC(=C2c3ccc(F)cc3OCc3cccnc32)CC1,inactive: 0.641,inactive: -0.71,inactive: 1.18
Cc1c(C)c2c(c(C)c1O)CC[C@@](C)(CCC[C@H](C)CCC[C@H](C)CCCC(C)C)O2 [Vitamin E],inactive: -1.23,inactive: 0.417,inactive: 3.45
CC(CC1CCCCC1)NCCC(c1ccccc1)c1ccccc1 (stereo unspecified) [Droprenilamine],inactive: -1.66,inactive: 0.348,inactive: -0.887
CCOCc1cc(OC)c(-c2ccc(C[C@H](NC(=O)c3c(F)cccc3F)C(=O)O)cc2)c(OC)c1 [Firategrast],inactive: 0.0917,inactive: -0.133,inactive: -0.125
